Measurements: patent US20130058918A1, “ISOLATION AND USE OF A NEW TYPE OF GLIAL CELL WITH NEUROTOXIC POTENTIAL” (Cedars-Sinai Medical Center, priority 2010, published 2013)
At least one structure is not confirmed: it was looked up by name or label, or the drawing left a doubt.

Tests used:
[1] = test system: primary neonatal spinal cord astrocytes; experiment: Forskolin challenge of primary neonatal astrocytes (GFAP staining, process growth); assay type: cell-based, rat
AbA cells = experiment: Forskolin challenge of AbA cell cultures (GFAP staining, process growth); assay type: cell-based, rat

## C=C[C@@]1(C)CC(=O)[C@]2(O)[C@@]3(C)[C@@H](O)CCC(C)(C)[C@@H]3[C@H](O)[C@H](OC(C)=O)[C@@]2(C)O1 [forskolin]
[1]; forskolin 10 uM
  process growth and GFAP staining in neonatal astrocytes: induced process growth and increased GFAP staining
[1]; pretreatment with 10 uM forskolin for 6 h
  GFAP staining and process growth in primary astrocytes: dramatically increased GFAP staining and process growth
AbA cells; forskolin 10 uM
  extent and duration of the forskolin effect in AbA: restricted to a perinuclear GFAP accumulation and rapidly reversed after 6 h
  process growth and GFAP staining in AbA cells: induced process growth and increased GFAP staining
AbA cells; pretreatment with 10 uM forskolin for 6 h, passage 12
  GFAP staining and process growth in AbA cells: dramatically increased GFAP staining and process growth
AbA cells; treated with Forskolin during 3 h
  GFAP processes in AbA cells: astrocyte-like GFAP processes
